{"source": "PubChem BioAssay AID720535", "about": "(National Center for Advancing Translational Sciences (NCATS), 2013)", "note": "Hit rate of the full screen: of about 1,600 compounds, about 420 (26%) were called active. The inconclusive results got no clear call from the source; some entries with a clear call stand among them for comparison. Calls follow the shape of the dose curve; as a rule, active = well fitted inhibition curve with a large enough effect; inconclusive = small, poorly fitted or top-dose-only effect; inactive = flat fitted curve, though single readings scatter. Potencies beside an inconclusive call are fits to weak or partial responses and may not hold up. Potency is read from the fitted curve at half-maximal effect."}
{"assay": "qHTS for Inhibitors of TGF-b: Cytotox Counterscreen for Cherry Picks; also: nearly all actives have a fitted effect of over 70% in size", "conditions": "HepG2 CAGA-GFP viability, ATP luminescence, 18 h, cells stimulated with TGF-beta, 500 pg/mL; activity, negative = cytotoxicity: at 46.1 µM (top of the series)", "how_it_was_run": "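HepG2 CAGA-GFP cells (1000/well, 1% FBS) given compound titrations plus TGF-beta 500 pg/mL for 18 h at 37 C; viability by CellTiter-Glo luminescence, normalized to DMSO and no-cell wells; concentration-response curves classified.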"}
{"smiles": "CCOC(=O)CNC(=O)CSc1nnc(Cn2c(=O)sc3ccccc32)n1-c1ccccc1C", "activity, negative = cytotoxicity": "inactive: -5.28%"}
{"smiles": "NC(=O)c1sc(-c2ccsc2)cc1NS(=O)(=O)c1ccc(C(F)(F)F)cc1", "Potency": "inconclusive: 8.2 µM [inhibitor, partial curve]"}
{"smiles": "O=S(=O)(/C(=C\\c1ccc(C(F)(F)F)cc1)c1nc2ccccc2[nH]1)c1ccccc1", "Potency": "active: 2.59 µM"}
{"smiles": "COc1ccc(CNc2cccc3[nH]c(C(F)(F)F)nc23)cc1OC", "activity, negative = cytotoxicity": "inactive: -3.63%"}
{"smiles": "CCCNC(=O)c1ccc2c(=O)c(O)c(-c3ccc(Cl)c([N+](=O)[O-])c3)[nH]c2c1", "Potency": "inconclusive: 1.84 µM [inhibitor, full curve]"}
{"smiles": "COc1cc2oc(=O)cc(-c3ccc(-c4ccc(O)cc4)cc3)c2c(OC)c1OC", "Potency": "inconclusive: 18.4 µM [inhibitor, single point]"}
{"smiles": "COC(=O)c1sccc1NC(=O)CN1CCN(c2ccc(F)cc2)CC1", "Potency": "inconclusive: 23.1 µM [inhibitor, single point]"}
{"smiles": "COCCN(Cc1cc2cc3c(cc2nc1Cl)OCO3)C(=O)c1ccc(C)cc1", "activity, negative = cytotoxicity": "inactive: -13.1%"}
{"smiles": "Cc1ccc(-n2nnnc2Sc2ccc(S(=O)(=O)NCCN(C)C)cc2[N+](=O)[O-])cc1", "Potency": "active: 20.6 µM"}
{"smiles": "COc1ccc(-c2csc(NC(C)c3nc4cc(C(F)(F)F)ccc4n3CCOCCO)n2)cc1", "note": "(stereo not drawn)", "Potency": "inconclusive: 20.6 µM [inhibitor, single point]"}
{"smiles": "Cc1nn2c(NCc3ccccn3)c3c(nc2c1-c1ccccc1)CCC3", "Potency": "inconclusive: 7.31 µM [inhibitor, partial curve]"}
{"smiles": "OC(c1cc(-c2ccc(C(F)(F)F)cc2)nc(C(F)(F)F)c1)C1CCCCN1", "note": "(stereo not drawn)", "Potency": "active: 23.1 µM"}
{"smiles": "Cc1ccc(NC(=O)C(C)c2ccc(-c3ccccc3)c(F)c2)cc1", "note": "(stereo not drawn)", "activity, negative = cytotoxicity": "inactive: -13.5%"}
{"smiles": "CCc1ccccc1NC(=S)/N=C(\\N)Nc1nc(C)c2cc(C)ccc2n1", "activity, negative = cytotoxicity": "inactive: -25.9%"}
{"smiles": "CCOC(=O)c1sc(NC(=O)Nc2ccc(Cl)cc2)cc1C", "Potency": "inconclusive: 18.4 µM [inhibitor, single point]"}
{"smiles": "O=C(NCc1nnc(SCc2ccc(F)cc2)n1-c1ccc(F)cc1)C12CC3CC(CC(C3)C1)C2", "Potency": "inconclusive: 29.1 µM [inhibitor, single point]"}
{"smiles": "CC(=O)Nc1nc(C)c(-c2csc(Nc3cccc([N+](=O)[O-])c3)n2)s1", "Potency": "inconclusive: 9.2 µM [inhibitor, partial curve]"}
{"smiles": "O=[N+]([O-])c1ccc(S(=O)(=O)c2ccccc2)nc1", "Potency": "active: 5.8 µM"}
{"smiles": "Cc1cccc(N2CCN(C(=O)c3cn(C)c(=O)c4c3c3ccccc3n4C)CC2)c1C", "Potency": "inconclusive: 25.9 µM [inhibitor, single point]"}
{"smiles": "O=C(c1[nH]nc2c1CCc1ccccc1-2)N1CCN(Cc2ccc3c(c2)OCO3)CC1", "Potency": "inconclusive: 14.6 µM [inhibitor, single point]"}
{"smiles": "CC(C)C[C@H]1CNC(=S)N1CC1CCCN1C[C@H](Cc1ccccc1)N1C[C@H](Cc2ccc(O)cc2)N(CC2CCCCCC2)C1=S", "note": "(stereo partly drawn)", "Potency": "inconclusive: 29.1 µM [inhibitor, single point]"}
{"smiles": "Cc1cccc(NC(=O)/C=C/c2ccc([N+](=O)[O-])s2)c1", "Potency": "active: 5.17 µM"}
{"smiles": "COCCNc1nc(NCc2ccccc2)nc2ccsc12", "Potency": "inconclusive: 7.31 µM [inhibitor, partial curve]"}
{"smiles": "CC1Sc2ccc(S(=O)(=O)CCC(=O)N3CCN(c4cccc(Cl)c4)CC3)cc2NC1=O", "note": "(stereo not drawn)", "Potency": "inconclusive: 9.2 µM [inhibitor, partial curve]"}
{"smiles": "COc1ccc(CNC(=O)C[C@H]2C[C@H](C(=O)N(C(C)C)C(C)C)[C@@]3(C)c4[nH]c5ccc(Cl)cc5c4CCN3C2=O)cc1OC", "Potency": "inconclusive: 29.1 µM [inhibitor, single point]"}
{"smiles": "Cc1ccc(NC(=O)c2ccc([N+](=O)[O-])s2)cc1S(=O)(=O)N1CCOCC1", "Potency": "inconclusive: 20.6 µM [inhibitor, single point]"}
{"smiles": "CC(=O)Oc1c(Br)cc(N(C(C)=O)S(=O)(=O)c2ccccc2)c2ccccc12", "Potency": "inconclusive: 29.1 µM [inhibitor, single point]"}
{"smiles": "C/C(CC(=O)Nc1ccc(Cl)c(C(F)(F)F)c1)=N\\NC(=O)c1ccccc1O", "Potency": "inconclusive: 13 µM [inhibitor, partial curve]"}
{"smiles": "FC(F)(F)c1nc2ccccc2n2c(-c3ccc(Cl)cc3)nnc12", "Potency": "inconclusive: 4.61 µM [inhibitor, full curve]"}
{"smiles": "CC[C@]12c3[nH]c4cc(-c5ccco5)ccc4c3CCN1C(=O)[C@@H](CC(=O)NCc1cccc(C(F)(F)F)c1)C[C@@H]2C(=O)N1CCN(C(=O)c2ccco2)CC1", "activity, negative = cytotoxicity": "inactive: -27.3%"}
{"smiles": "Cc1ccc(NC(=O)c2cc(S(=O)(=O)NCCC3=CCCCC3)ccc2F)cc1", "Potency": "inconclusive: 20.6 µM [inhibitor, single point]"}
{"smiles": "COc1c(C(C)C)oc2cc3oc(=O)ccc3cc12", "Potency": "inconclusive: 4.61 µM [inhibitor, full curve]"}
{"smiles": "CC(C)(C)C(=O)NCCCc1nc2ccccc2n1CCCOc1ccc(Cl)cc1", "activity, negative = cytotoxicity": "inactive: -14.3%"}
{"smiles": "O[C@H]1CN(CC2CCCCC2)[C@@H](c2ccc(Cl)cc2)C[C@@H]1n1cc(C2CC2)nn1", "Potency": "active: 16.4 µM"}
{"smiles": "Oc1ccc(CN2CCC(Cc3ccccc3)CC2)c2cccnc12", "Potency": "inconclusive: 3.26 µM [inhibitor, full curve]"}
{"smiles": "CCN(CC)S(=O)(=O)c1ccc2oc(SCC(=O)Nc3cc(C)on3)nc2c1", "Potency": "inconclusive: 2.91 µM [inhibitor, single point]"}
{"smiles": "O=C(CSc1nc(-c2ccc(Cl)cc2)cs1)Nc1cccc([N+](=O)[O-])c1", "Potency": "inconclusive: 29.1 µM [inhibitor, single point]"}
{"smiles": "CC(=O)c1cccc(-c2cnc3c(NC=O)cc(-c4ccccc4F)cn23)c1", "activity, negative = cytotoxicity": "inactive: -14.5%"}
{"smiles": "COc1ccc(COc2cc(-c3cccc(OC)c3)nc3ccc(N)cc23)cc1", "activity, negative = cytotoxicity": "inactive: -19.2%"}
{"smiles": "C/C=C1\\COC(C(=O)NCc2ccccc2)(C(F)(F)F)C=C1C=C1CCCCC1", "note": "(stereo not drawn)", "activity, negative = cytotoxicity": "inactive: -24.4%"}
{"smiles": "COc1ccc(-c2nc(NC(=O)C3CC(=O)N(c4ccc5c(c4)OCCO5)C3)sc2C)cc1", "note": "(stereo not drawn)", "Potency": "inconclusive: 9.2 µM [inhibitor, partial curve]"}
{"smiles": "C(=C\\c1ccccc1)/CN1CCN(C(c2cccs2)c2nnnn2Cc2ccccc2)CC1", "note": "(stereo not drawn)", "Potency": "inconclusive: 10.3 µM [inhibitor, partial curve]"}
{"smiles": "COc1ccc2cc(-c3ccccc3F)ncc2c1", "activity, negative = cytotoxicity": "inactive: -20.5%"}
{"smiles": "COc1ccc(NC(=O)CNC(c2ccccc2)c2ccccc2)cc1Cl", "activity, negative = cytotoxicity": "inactive: -10.5%"}
{"smiles": "COc1ccccc1NS(=O)(=O)c1cccc(NC(=O)Nc2ccccc2)c1", "Potency": "inconclusive: 16.4 µM [inhibitor, partial curve]"}
{"smiles": "Clc1cccc(Nc2nc(-c3ccncc3)nc3ccccc23)c1", "Potency": "inconclusive: 4.11 µM [inhibitor, full curve, poor fit]"}
{"smiles": "O=C1Cc2c([nH]c3ccc(Br)cc23)-c2ccccc2N1", "Potency": "active: 3.66 µM"}
{"smiles": "COc1ccc(CNC(=O)C[C@H]2C[C@H](C(=O)N3CCOCC3)[C@@]3(CCC4CCCC4)c4[nH]c5ccc(Cl)cc5c4CCN3C2=O)cc1OC", "Potency": "inconclusive: 20.6 µM [inhibitor, single point]"}
{"smiles": "CCn1nc([N+](=O)[O-])c(C(C#N)c2nc3cc(C(F)(F)F)ccc3s2)c(Cl)c1=O", "note": "(stereo not drawn)", "Potency": "active: 8.2 µM"}
{"smiles": "S=C(Nc1ccc(Br)cc1)NC1CCCCC1", "Potency": "inconclusive: 18.4 µM [inhibitor, single point]"}
{"smiles": "CCCOc1ccc(C(=O)CCN2CCN(C(=O)OCC)CC2)cc1", "Potency": "active: 20.6 µM"}
{"smiles": "COc1ccc(-c2cc3ccccc3oc2=O)cc1NC(=O)c1ccc([N+](=O)[O-])o1", "Potency": "inconclusive: 16.4 µM [inhibitor, partial curve]"}
{"smiles": "COc1ccc(C(=O)/C(C#N)=N/Nc2cccc([N+](=O)[O-])c2)cc1", "Potency": "inconclusive: 6.51 µM [inhibitor, full curve]"}
{"smiles": "CC(C)(C)c1ccc(S(=O)(=O)N2CCC(c3nc4ccc(Cl)cc4[nH]3)CC2)cc1", "Potency": "inconclusive: 18.4 µM [inhibitor, partial curve]"}
{"smiles": "Cc1cccc(N2CCN(C(=O)c3ccc(S(=O)(=O)N(C)c4ccccc4)cc3)CC2)c1C", "activity, negative = cytotoxicity": "inactive: -20.5%"}
{"smiles": "CC(=O)O[C@@H](C[C@@H](C)C1=C2C[C@H](O)C3[C@@]4(C)CCC(=O)C(C)(C)C4CC[C@]3(C)[C@@]2(C)CC1)[C@H]1OC1(C)C", "note": "(stereo partly drawn)", "Potency": "inconclusive: 29.1 µM [inhibitor, single point]"}
{"smiles": "Cc1nn(-c2ccccc2)c(C)c1/C=N/NC(=O)CSc1nc2ccccc2c(=O)n1-c1ccccc1", "Potency": "inconclusive: 2.91 µM [inhibitor, full curve, poor fit]"}
{"smiles": "CCN(CC(O)Cn1c2ccccc2c2ccccc21)S(=O)(=O)c1ccc(C)cc1", "note": "(stereo not drawn)", "Potency": "inconclusive: 29.1 µM [inhibitor, single point]"}
{"smiles": "COc1cc(/C=N/n2cc(-c3ccccc3)[nH]c2=S)cc(OC)c1O", "activity, negative = cytotoxicity": "inactive: 0.618%"}
{"smiles": "COc1cc(Cl)ccc1OCc1cc(C(=O)N(C)Cc2cccc3cnccc23)no1", "Potency": "inconclusive: 11.6 µM [inhibitor, partial curve]"}
{"smiles": "CCOc1ccc(CCN2C(=S)N([C@@H](CC(C)C)CN3CCCC3CN3C(=S)NC[C@@H]3Cc3ccc(O)cc3)C[C@@H]2Cc2ccc(O)cc2)cc1", "note": "(stereo partly drawn)", "Potency": "inconclusive: 18.4 µM [inhibitor, single point]"}
{"smiles": "COc1cc(/C=C(/C(=O)c2cccs2)c2nc3ccccc3[nH]2)ccc1O", "Potency": "active: 13 µM"}
{"smiles": "CC[C@H](C)[C@@H]1OC(=O)[C@@H](C)[C@@H](CC)NC(=O)[C@H](C)N(C)C(=O)C(C)(C)C(=O)C(C)NC(=O)[C@H](Cc2ccccc2)N(C)C(=O)[C@H](C(C)C)N(C)C(=O)CNC(=O)[C@H](CC(C)C)N(C)C(=O)CNC1=O", "note": "(stereo partly drawn)", "Potency": "inconclusive: 5.8 µM [inhibitor, full curve]"}
